Experimental data from the supplement of paper PMC6411743.
± gives the standard deviation of the averaged measurements. The list shows a part of the results.

By UniProt entry, the sequences of proteins in these tests, tags left out. Where a name states a change or a piece, a line headed by the entry shows the natural chain unless it says otherwise.
UniProt O95249: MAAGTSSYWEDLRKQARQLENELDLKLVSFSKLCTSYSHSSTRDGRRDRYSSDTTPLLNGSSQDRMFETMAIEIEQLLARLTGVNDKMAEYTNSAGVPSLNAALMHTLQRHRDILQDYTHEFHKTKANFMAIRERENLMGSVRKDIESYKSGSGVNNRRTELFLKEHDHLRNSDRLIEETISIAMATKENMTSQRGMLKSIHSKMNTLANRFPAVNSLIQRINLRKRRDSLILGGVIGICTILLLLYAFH
UniProt P19404, whole entry: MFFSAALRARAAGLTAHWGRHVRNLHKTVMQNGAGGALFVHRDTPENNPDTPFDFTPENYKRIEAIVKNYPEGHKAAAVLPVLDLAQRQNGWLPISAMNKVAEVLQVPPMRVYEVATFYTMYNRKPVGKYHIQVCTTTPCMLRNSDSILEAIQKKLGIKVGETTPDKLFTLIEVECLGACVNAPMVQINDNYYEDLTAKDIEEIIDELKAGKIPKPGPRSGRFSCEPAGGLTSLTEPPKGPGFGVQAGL
UniProt O95819: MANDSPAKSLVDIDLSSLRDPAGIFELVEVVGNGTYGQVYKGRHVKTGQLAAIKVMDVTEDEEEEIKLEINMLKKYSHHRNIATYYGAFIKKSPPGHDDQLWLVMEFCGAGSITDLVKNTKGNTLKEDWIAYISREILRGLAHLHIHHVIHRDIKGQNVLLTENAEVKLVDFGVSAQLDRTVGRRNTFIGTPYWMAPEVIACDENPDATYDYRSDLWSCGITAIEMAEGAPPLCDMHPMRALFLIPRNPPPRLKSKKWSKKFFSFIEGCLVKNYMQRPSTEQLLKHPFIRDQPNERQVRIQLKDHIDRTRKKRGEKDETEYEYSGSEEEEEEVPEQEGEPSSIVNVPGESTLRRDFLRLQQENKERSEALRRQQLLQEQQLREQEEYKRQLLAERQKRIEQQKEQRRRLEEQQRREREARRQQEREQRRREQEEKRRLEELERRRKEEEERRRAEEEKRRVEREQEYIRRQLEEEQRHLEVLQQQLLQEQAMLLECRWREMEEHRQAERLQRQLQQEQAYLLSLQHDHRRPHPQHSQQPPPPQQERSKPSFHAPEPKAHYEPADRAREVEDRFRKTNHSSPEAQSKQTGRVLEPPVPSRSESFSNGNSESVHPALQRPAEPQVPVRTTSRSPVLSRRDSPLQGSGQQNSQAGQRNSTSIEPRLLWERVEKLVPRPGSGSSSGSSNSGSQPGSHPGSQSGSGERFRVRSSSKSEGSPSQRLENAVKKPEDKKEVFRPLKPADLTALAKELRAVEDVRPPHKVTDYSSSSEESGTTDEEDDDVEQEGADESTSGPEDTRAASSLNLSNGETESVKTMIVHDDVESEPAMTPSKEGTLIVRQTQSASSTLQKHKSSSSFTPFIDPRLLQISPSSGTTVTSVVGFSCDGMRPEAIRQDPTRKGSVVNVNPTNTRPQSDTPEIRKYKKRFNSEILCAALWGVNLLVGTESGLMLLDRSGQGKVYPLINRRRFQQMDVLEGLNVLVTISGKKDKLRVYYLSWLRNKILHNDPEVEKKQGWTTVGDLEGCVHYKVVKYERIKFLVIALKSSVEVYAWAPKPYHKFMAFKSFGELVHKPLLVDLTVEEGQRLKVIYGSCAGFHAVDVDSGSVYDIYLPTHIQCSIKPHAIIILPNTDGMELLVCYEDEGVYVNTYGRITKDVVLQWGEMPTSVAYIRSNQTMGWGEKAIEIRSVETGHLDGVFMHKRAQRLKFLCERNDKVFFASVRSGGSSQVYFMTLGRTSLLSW
UniProt P54105: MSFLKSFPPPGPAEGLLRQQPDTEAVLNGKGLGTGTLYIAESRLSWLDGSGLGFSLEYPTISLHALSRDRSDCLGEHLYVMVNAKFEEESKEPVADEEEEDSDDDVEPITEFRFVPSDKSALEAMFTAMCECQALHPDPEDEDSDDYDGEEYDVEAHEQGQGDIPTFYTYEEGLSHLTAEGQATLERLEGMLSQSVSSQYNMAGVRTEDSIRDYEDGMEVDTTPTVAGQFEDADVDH
UniProt Q96MG8: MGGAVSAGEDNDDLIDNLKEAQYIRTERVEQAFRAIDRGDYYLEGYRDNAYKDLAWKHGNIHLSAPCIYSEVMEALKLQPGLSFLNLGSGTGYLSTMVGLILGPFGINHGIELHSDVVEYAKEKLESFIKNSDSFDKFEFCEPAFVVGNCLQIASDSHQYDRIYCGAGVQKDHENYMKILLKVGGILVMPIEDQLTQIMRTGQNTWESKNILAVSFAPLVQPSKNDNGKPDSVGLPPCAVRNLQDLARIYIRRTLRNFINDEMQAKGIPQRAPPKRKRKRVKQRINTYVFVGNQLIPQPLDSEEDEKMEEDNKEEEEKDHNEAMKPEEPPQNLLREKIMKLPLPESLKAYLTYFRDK
UniProt Q9HAW4: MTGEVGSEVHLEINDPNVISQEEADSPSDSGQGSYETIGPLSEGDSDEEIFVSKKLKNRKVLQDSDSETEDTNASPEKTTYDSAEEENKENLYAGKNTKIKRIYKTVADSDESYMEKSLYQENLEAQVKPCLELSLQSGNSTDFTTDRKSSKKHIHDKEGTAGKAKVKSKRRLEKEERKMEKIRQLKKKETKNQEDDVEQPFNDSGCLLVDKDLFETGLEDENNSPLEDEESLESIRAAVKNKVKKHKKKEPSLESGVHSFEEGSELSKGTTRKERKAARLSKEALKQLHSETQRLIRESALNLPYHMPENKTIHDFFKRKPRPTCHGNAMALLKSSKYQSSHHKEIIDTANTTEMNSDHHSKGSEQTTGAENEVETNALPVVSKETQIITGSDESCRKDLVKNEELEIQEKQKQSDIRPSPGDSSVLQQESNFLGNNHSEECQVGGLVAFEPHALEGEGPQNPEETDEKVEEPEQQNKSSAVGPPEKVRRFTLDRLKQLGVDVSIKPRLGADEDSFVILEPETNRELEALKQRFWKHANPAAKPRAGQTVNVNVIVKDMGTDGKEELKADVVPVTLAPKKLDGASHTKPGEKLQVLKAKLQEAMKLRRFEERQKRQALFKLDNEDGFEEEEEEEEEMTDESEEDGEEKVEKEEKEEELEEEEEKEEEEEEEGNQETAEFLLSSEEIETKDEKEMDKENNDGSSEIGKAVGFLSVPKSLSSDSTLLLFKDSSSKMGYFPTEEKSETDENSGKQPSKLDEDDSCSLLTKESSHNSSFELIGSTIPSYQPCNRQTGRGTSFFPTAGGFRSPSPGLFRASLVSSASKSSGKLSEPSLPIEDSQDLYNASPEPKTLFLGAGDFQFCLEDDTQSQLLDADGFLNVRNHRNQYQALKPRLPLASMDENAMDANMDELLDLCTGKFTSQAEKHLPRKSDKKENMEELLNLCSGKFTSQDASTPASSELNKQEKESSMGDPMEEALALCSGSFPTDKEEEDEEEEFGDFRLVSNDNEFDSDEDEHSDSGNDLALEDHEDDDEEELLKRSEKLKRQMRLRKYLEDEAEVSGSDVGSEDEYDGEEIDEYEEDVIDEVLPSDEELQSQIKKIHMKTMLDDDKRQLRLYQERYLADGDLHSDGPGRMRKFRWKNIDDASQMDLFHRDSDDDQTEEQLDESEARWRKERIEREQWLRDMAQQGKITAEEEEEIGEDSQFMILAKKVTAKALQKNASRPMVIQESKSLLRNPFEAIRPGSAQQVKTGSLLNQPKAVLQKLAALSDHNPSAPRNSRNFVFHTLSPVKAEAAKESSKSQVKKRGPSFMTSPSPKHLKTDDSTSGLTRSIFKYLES
UniProt Q02338: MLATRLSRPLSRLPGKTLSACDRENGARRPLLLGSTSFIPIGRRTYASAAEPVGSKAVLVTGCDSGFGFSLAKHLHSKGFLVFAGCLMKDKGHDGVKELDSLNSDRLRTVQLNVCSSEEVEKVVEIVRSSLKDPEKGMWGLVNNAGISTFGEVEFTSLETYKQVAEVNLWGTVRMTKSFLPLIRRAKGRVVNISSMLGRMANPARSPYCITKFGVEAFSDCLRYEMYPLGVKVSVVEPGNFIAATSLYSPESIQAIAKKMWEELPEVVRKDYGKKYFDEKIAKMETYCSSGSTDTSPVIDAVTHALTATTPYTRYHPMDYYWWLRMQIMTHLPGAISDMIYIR
UniProt P08962, whole entry: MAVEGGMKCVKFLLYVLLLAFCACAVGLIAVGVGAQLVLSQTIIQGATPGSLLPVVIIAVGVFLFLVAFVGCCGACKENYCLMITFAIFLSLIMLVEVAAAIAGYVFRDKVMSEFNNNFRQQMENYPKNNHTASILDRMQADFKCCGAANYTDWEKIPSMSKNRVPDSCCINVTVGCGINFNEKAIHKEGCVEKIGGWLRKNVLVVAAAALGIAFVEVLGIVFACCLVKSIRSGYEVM
UniProt P20936: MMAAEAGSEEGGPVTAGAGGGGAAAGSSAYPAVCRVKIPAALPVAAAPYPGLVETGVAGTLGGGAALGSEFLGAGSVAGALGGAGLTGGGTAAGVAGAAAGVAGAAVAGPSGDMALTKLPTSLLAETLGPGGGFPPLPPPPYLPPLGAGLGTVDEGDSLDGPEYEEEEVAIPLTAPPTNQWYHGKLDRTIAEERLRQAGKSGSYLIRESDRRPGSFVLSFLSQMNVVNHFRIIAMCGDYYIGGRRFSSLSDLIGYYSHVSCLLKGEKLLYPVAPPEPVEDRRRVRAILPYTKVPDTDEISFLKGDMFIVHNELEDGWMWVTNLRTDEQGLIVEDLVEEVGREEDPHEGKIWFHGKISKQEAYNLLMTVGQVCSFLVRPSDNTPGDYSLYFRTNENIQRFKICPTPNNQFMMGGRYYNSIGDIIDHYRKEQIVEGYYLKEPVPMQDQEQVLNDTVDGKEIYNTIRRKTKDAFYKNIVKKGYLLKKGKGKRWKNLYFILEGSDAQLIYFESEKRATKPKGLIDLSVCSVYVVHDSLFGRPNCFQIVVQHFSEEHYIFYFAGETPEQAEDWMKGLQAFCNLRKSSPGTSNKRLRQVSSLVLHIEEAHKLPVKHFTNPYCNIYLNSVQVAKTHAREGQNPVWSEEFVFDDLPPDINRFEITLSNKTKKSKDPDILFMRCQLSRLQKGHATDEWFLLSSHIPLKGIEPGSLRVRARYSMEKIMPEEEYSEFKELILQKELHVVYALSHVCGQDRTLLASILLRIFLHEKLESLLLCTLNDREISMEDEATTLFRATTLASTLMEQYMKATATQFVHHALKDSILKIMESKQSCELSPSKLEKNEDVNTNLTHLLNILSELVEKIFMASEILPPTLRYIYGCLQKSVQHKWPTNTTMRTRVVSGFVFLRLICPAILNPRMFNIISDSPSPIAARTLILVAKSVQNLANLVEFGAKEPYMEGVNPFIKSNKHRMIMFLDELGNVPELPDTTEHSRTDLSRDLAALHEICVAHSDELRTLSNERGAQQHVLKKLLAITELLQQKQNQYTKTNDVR
UniProt Q9H3J6: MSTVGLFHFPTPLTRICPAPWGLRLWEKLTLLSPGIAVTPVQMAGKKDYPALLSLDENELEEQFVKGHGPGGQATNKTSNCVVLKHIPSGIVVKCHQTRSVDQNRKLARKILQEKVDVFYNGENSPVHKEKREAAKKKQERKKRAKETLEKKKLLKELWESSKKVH
UniProt Q9Y6M9, whole entry: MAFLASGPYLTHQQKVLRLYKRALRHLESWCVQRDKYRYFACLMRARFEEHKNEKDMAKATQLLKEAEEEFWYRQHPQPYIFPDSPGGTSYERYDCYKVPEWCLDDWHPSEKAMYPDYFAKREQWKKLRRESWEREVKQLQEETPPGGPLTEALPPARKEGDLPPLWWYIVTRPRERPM
UniProt Q9HBM0: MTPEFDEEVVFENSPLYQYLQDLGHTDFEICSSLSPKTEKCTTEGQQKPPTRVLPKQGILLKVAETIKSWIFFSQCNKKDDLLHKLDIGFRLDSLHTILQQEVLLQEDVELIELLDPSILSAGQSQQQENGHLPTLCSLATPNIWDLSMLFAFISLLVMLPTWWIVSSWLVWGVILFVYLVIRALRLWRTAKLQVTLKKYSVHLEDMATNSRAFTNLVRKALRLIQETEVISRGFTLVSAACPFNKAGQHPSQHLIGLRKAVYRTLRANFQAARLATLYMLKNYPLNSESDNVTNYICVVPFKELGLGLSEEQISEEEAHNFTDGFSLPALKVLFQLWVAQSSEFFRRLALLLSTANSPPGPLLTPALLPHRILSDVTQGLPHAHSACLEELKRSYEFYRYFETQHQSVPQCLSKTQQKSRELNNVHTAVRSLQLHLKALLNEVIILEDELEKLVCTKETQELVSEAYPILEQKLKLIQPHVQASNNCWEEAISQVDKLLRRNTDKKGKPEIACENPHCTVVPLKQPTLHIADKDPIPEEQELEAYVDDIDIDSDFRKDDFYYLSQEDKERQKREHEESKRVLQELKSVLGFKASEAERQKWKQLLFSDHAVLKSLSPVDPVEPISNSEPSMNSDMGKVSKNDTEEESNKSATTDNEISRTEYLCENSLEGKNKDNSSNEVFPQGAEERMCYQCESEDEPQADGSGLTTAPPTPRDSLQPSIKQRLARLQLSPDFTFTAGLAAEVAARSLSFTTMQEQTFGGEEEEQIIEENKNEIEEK

Compound: Nc1nc2c(ncn2[C@@H]2O[C@H](COP(=O)(O)OP(=O)(O)OP(=O)(O)O)[C@@H](O)[C@H]2O)c(=O)[nH]1 [guanosine triphosphate]
Assay: NP40-soluble protein abundance relative to vehicle (solubility fold change) (ratio); higher = more soluble protein in presence of GTP
Conditions: concentration: 6mM
Summary of the method: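 Data come from three independent experiments in which Dounce-homogenised Jurkat crude lysate was treated at eight concentrations from 0.1 to 10 mM. Treatment ran 10 min at room temperature and then 3 min at 37 °C, after which 0.8% NP40 and benzonase were added for 60 min at 4 °C before ultracentrifugation. The supernatant underwent TMT labelling and LC-MS/MS, and vsn-normalised intensities were expressed as fold change against the detergent-processed vehicle in each replicate.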

Target	NP40-soluble protein abundance
E9PCW1 and related entries (UniProt O95249)	1.01 ± 0.067
E7EPT4 and related entries (UniProt P19404)	1.15 ± 0.17
F5GZZ0 and related entries (UniProt Q6NS38)	1.016 ± 0.0074
E7ESS2 and related entries (UniProt O95819)	0.976 ± 0.059
F5H2R5 and related entries (UniProt P52566)	0.884 ± 0.089
E9PMI6 and related entries (UniProt P54105)	1.01 ± 0.052
F5H1M8 and related entries (UniProt Q96MG8)	0.902 ± 0.0096
E7ESG2 and related entries (UniProt Q9HAW4)	1.01 ± 0.058
E7ETP9 and related entries (UniProt Q9UQV4)	0.833 ± 0.11
E9PCG9 and related entries (UniProt Q02338)	1.01 ± 0.092
F8VV56 and related entries (UniProt P08962)	0.875 ± 0.089
E9PGC0 and related entries (UniProt P20936)	0.931 ± 0.032
F5H269 and related entries (UniProt Q9Y485)	1.06 ± 0.088
F5GZG1 and related entries (UniProt P61224)	0.869 ± 0.14
F5GWJ6 and related entries (UniProt Q9H3J6)	1.29 ± 0.097
E9PH64 and related entries (UniProt Q9Y6M9)	1.23 ± 0.072
F8W8C2 and related entries (UniProt Q9HBM0)	0.92 ± 0.17
E9PKV2 and related entries (UniProt Q9NRX2)	1.3 ± 0.38

Some of the entries so far, as comma-separated lines.
Target,NP40-soluble protein abundance
E9PGC0 and related entries (UniProt P20936),0.931 ± 0.032
E9PH64 and related entries (UniProt Q9Y6M9),1.23 ± 0.072
